# Measured data: PubChem BioAssay AID504808 (Drosophila RNAi Screening Center, 2011)
# Test: 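Chromatin factors that keep E2F targets switched off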 (primary screen)
# Cells: Drosophila S2 cells
# Knock-down reagent: long dsRNA against Drosophila genes
# Detection: 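Dual luciferase plate measurements; E2F-specific signal taken as firefly over Renilla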
# Scale: E2F firefly: higher = more E2F reporter activity; Renilla normaliser: higher = more normaliser reporter signal
# Rule for the call: 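a knock-down counted as active when the firefly/Renilla E2F signal rose above 50%, a threshold chosen arbitrarily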
# The deposit covers about 21,000 reagents; shown is a random part of those that have a named target and a result. In the full data, 18 (0.084%) got an active call. 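Raw counts without plate normalisation, one of two replicates; the ratio scores behind the calls were not deposited.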 Reagents against one gene are numbered here. Not given: the amount of reagent, the time to read-out.
The opening 2 records, to show the layout:
gene,reagent no.,"E2F firefly, rep 1","Renilla normaliser, rep 1",call
Nup43,1,1.17e5,6306,inactive
CG8468,1,88428,3861,inactive

The listing, from the first entry:
gene,reagent no.,"E2F firefly, rep 1","Renilla normaliser, rep 1",call
Nup43,1,1.17e5,6306,inactive
CG8468,1,88428,3861,inactive
CG3526,1,76895,2281,inactive
CG3526,2,1.12e5,6160,inactive
Spt20,1,82162,5908,inactive
CG6834,1,1.42e5,7120,inactive
Fdx1,1,55176,709,inactive
CG14797,1,1.24e5,6355,inactive
mam,1,78922,3135,inactive
mam,2,74082,3439,inactive
CG42714,1,1.18e5,3737,inactive
Rh4,1,1.75e5,9327,inactive
Dap160,1,79066,2964,inactive
dmrt11E,1,1.10e5,6008,inactive
CG15233,1,84017,3836,inactive
galene,1,92959,4349,inactive
galene,2,1.01e5,4418,inactive
CR42548,1,1.33e5,4686,inactive
Crtp,1,1.02e5,4512,inactive
CG15130,1,1.03e5,4364,inactive
Tango5,1,8015,760,inactive
Dark,1,78137,3275,inactive
COX7B,1,1.89e5,9986,inactive
slbo,1,1.13e5,4928,inactive
CG8379,1,1.22e5,5659,inactive
EMC7,1,1.46e5,5372,inactive
CG10151,1,151,29,inactive
spab,1,1.53e5,4819,inactive
Hacl,1,79560,3256,inactive
CG4783,1,47457,3637,inactive
CG6345,1,1.45e5,6312,inactive
DJ-1alpha,1,92181,4476,inactive
CG30432,1,1.29e5,5692,inactive
betaNACtes3,1,1.42e5,6438,inactive
